Measured values as given in PubChem BioAssay AID2685 (National Center for Advancing Translational Sciences (NCATS), 2010).
The list shows a part of the results. The main result of the screen is listed elsewhere. These columns were measured beside it and carry no call. Most of these compounds were active or inconclusive in the main read-out, so they are no random draw. The note in brackets gives the kind of curve behind each potency; many fits are weak. Where a SMILES comes first, the peptide text is derived from it. [ ]: non-standard residue; d: D form. ξ: configuration not given here. ξV = CC(C)C(N)C(=O)O

Assay: qHTS Assay for Lipid Storage Modulators in Drosophila S3 Cells;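 on cell number change: cells counted by Cell Tracker Red CMTPX staining in the red channel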
Settings: BODIPY lipid droplet fluorescence, 18-24 h; for cell number change: measured here: cell count max response, cells fed with added oleic acid
Method in brief: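 Drosophila S3 cells got compounds at several concentrations plus oleic acid (400 uM solution). Laser-scanning cytometry with 488 nm excitation read lipid droplets at 500-530 nm and cells at 575-640 nm. Percent activity was relative to 20 uM Triacsin C.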

[1] = measured here: cell number channel AC50, cells fed with added oleic acid
[2] = measured here: lipid fluorescence (Fed channel) AC50, cells fed with added oleic acid

| Structure (SMILES) | cell number change [%] | AC50 [1] | AC50 [2] |
| --- | --- | --- | --- |
| O=C(N[C@@H](Cc1ccccc1)C(=O)N1CCC2(CC1)NCCc1[nH]cnc12)c1cccc(Br)c1 | 17.8 |  |  |
| CC(C)Oc1ccc(S(=O)(=O)N2CCCCC2)cc1NC(=O)CN1C(=O)NC2(CCCC2)C1=O | 98 | 20.6 µM [rising, partial curve] |  |
| Cc1cc(NC(=O)c2ccc([N+](=O)[O-])cc2)no1 |  |  | 0.731 µM [falling, full curve] |
| Cc1cccc(C)c1NC(=O)CN(C)C(=O)c1ccc2c(=O)n3c(nc2c1)CCC3 | 42.5 | 4.61 µM [rising, partial curve, poor fit] | 16.4 µM [rising, partial curve] |
| CC1CN(C(=O)c2cc3cc(F)ccc3[nH]2)CC(C)O1 (stereo unspecified) | -7.75 |  |  |
| O=C(c1ccccc1)N1CCN(S(=O)(=O)c2cccs2)CC1 | 7.34 |  |  |
| COc1ccc(CC(=O)NNC(=O)CN(C)S(=O)(=O)c2ccc(Cl)cc2)cc1OC | -17.9 |  | 1.03 µM [falling, full curve] |
| COc1cc(C2C3=C(CCCC3=O)Nc3c2c(C)nn3-c2cccc(C)c2)cc(OC)c1O (stereo unspecified) | -37.9 | 13 µM [falling, single point] | 18.4 µM [falling, single point] |
| Cc1ccc(SCC(=O)O/N=C(\N)c2ccncc2)cc1 | -12.4 |  | 29.1 µM [falling, single point] |
| COCCCn1nnnc1SCC(=O)N1c2ccccc2CC1C (stereo unspecified) | 14.6 |  | 6.51 µM [falling, single point] |
| Cc1ccc(-c2cc(C(=O)Nc3ccncc3)c3ccccc3n2)cc1 | 32 | 6.51 µM [rising, partial curve, poor fit] | 6.51 µM [rising, single point] |
| Cc1cccc2nc(CSCc3ccco3)cn12 | 38.3 | 29.1 µM [rising, single point] | 16.4 µM [rising, partial curve] |
| CCOC(=O)CSc1nc(C)cc(=O)[nH]1 | 4.31 |  |  |
| Cc1ccc(-n2c(SCC(=O)N3CCOCC3)nc(O)c(Cc3ccccc3)c2=O)cc1 | -6.25 |  | 0.259 µM [falling, full curve, poor fit] |
| CCCCc1ccc(NS(=O)(=O)c2c(C)n(C)c(=O)n(C)c2=O)cc1 | 34.9 | 5.8 µM [rising, full curve, poor fit] |  |
| CCn1c(SCc2ccc(F)cc2)nc2ccccc2c1=O |  |  | 7.31 µM [rising, partial curve] |
| Cc1ccccc1NC1=NC2(CCCC2)N=C(N)N1 |  |  | 0.00461 µM [falling, full curve, poor fit] |
| O=C(COC(=O)/C=C/c1cccc(Cl)c1)NC1CCCC1 | 13.8 |  | 4.61 µM [rising, full curve] |
| O=C(NCc1ccncc1)Nc1ccccc1Cl | 15.4 |  | 29.1 µM [rising, single point] |
| Cc1ccc(CN2CCN(CC3CC4C=CC3C4)CC2)cc1 (stereo unspecified) | -4.5 |  | 0.0461 µM [falling, full curve, poor fit] |
| COc1ccc(-c2nn3c(-c4ccccc4)nnc3s2)cc1OC | -32.4 | 8.2 µM [falling, partial curve, poor fit] |  |

| Structure (SMILES) | cell number change [%] | AC50 [1] | AC50 [2] |
| --- | --- | --- | --- |
| C/C(N)=C(/C#N)C(=O)COC(=O)C1Cc2ccccc2CN1S(C)(=O)=O (stereo unspecified) | 28 | 0.731 µM [rising, full curve, poor fit] |  |
| O=C(NCC(O)COc1ccc([N+](=O)[O-])cc1)c1ccccc1 (stereo unspecified) | 27.9 |  | 0.116 µM [falling, full curve, poor fit] |
| CCO[C@H]1OC(C(N)=O)=C[C@@H](c2ccc(Br)cc2)[C@@H]1CCCO | 14.9 |  | 0.731 µM [rising, partial curve] |
| Cc1cc2cc(C(c3nnnn3Cc3ccco3)N3CCc4ccccc4C3)c(=O)[nH]c2cc1C (stereo unspecified) | 1 |  | 10.3 µM [rising, partial curve] |
| Cc1csc(NC(=O)c2cc3c(s2)-c2ccccc2OC3)n1 | -40.2 | 23.1 µM [falling, single point] |  |
| CCCOc1ccc(CNC(=S)N/N=C/c2ccc([N+](=O)[O-])cc2)cc1 | 17.6 |  | 2.91 µM [rising, partial curve] |
| CCOC(=O)Cn1c(C)cc(COC)c(C#N)c1=O | 8.83 |  | 6.51 µM [falling, single point] |
| C=CCOc1c(Br)cc(/C=N/NC(N)=O)cc1OC | 18 |  | 0.517 µM [rising, partial curve] |
| COc1cc(CNCCc2c[nH]c3ccccc23)ccc1OCc1ccccc1F | -58.5 | 29.1 µM [falling, single point] | 29.1 µM [falling, single point] |
| CCOc1cc(-c2cc(-c3ccc(C)cc3)nc(N)c2C#N)ccc1O | -63.1 | 29.1 µM [falling, single point] |  |
| Cc1ccc(-n2ncc3c2CC(C)(C)CC3NC(=O)c2ccncc2)cc1 (stereo unspecified) | 18.1 |  | 4.61 µM [rising, partial curve, poor fit] |
| Cc1ccc(CC(=O)Nc2cccc(S(=O)(=O)N3CCOCC3)c2)cc1 |  | 0.58 µM [rising, single point] |  |
| Cc1cc(C)n2c(SCc3cccs3)nnc2n1 |  | 6.51 µM [rising, single point] | 6.51 µM [rising, partial curve] |
| COc1ccc(CCn2c(-c3ccco3)nc3nc4ccccc4nc32)cc1 | -143 | 29.1 µM [falling, single point] | 29.1 µM [falling, single point] |
| O=C(CN1CCN(S(=O)(=O)c2ccc(Br)cc2)CC1)Nc1ccc2c(c1)OCO2 | -22.3 |  | 0.082 µM [falling, full curve, poor fit] |
| CC(=O)NC(C(=O)NCC(N)=O)C(C)C (stereo unspecified) (Ac-[ξV]-Gly-NH2) | -4.76 |  | 23.1 µM [falling, single point] |
| CCNC(=O)c1ccc(C2SCC(=O)N2Cc2ccco2)cc1 (stereo unspecified) | -20.9 |  | 0.164 µM [falling, full curve, poor fit] |
| COc1ccc(NS(=O)(=O)c2ccc(S(=O)(=O)N3CCCC3)cc2)cc1 | 14.8 |  | 4.11 µM [rising, single point] |
| CCOC(=O)C1CCN(S(=O)(=O)c2ccc(OC)c(C(=O)N3CCCCCC3)c2)CC1 | 40.8 | 5.8 µM [rising, full curve, poor fit] |  |
| CC(C)CCN(C(=O)Cc1ccccc1F)c1c(N)n(Cc2ccccc2)c(=O)[nH]c1=O | 18.8 |  |  |
| CN(C)c1nc(Oc2ccc(/C=N/O)cc2)nc(N(C)C)n1 | -19.3 |  | 8.2 µM [rising, partial curve] |

| Structure (SMILES) | cell number change [%] | AC50 [1] | AC50 [2] |
| --- | --- | --- | --- |
| CCCn1c(N)c(N(CCOC)C(=O)c2ccc(F)cc2F)c(=O)[nH]c1=O | 5.26 |  | 3.16 µM [rising, partial curve] |
| CCc1ccc(N(CC)C(=O)c2ccc3c(Cl)c4c(nc3c2)CCC4)cc1 | 10 |  | 1.64 µM [rising, partial curve, poor fit] |
| CN1CCN(CC(O)COc2ccc(C34CC5CC(CC(C5)C3)C4)cc2)CC1 (stereo unspecified) | 5.85 |  | 0.116 µM [falling, full curve, poor fit] |
| CCOC(=O)C1CCCN(C(=O)c2cc3c(C)nc4ccccc4c3o2)C1 (stereo unspecified) | 31.4 | 1.03 µM [rising, full curve] | 29.1 µM [rising, single point] |
| Nc1cccc2c1C(=O)N(CCOc1ccccc1F)C2=O | 7.66 |  |  |
| O=C(COc1ccc(F)cc1)N(Cc1ccc(Cl)cc1)C1CCS(=O)(=O)C1 (stereo unspecified) | 7.16 |  | 6.51 µM [falling, single point] |
| NS(=O)(=O)c1ccc(NC(=O)NC2CC(=O)N(c3ccc4c(c3)OCCO4)C2)cc1 (stereo unspecified) | -15.5 |  |  |
| COc1ccccc1NC(=O)CN(c1ccccc1OC)S(=O)(=O)c1ccccc1 | -0.246 |  | 20.6 µM [falling, single point] |
| CCc1ccc(OCC(=O)NC(C)(C)C)cc1 | -23 |  | 6.51 µM [falling, partial curve, poor fit] |
| COc1ccccc1C(C)Nc1ccc(S(=O)(=O)N2CCN(C)CC2)cc1[N+](=O)[O-] (stereo unspecified) | -11.8 |  | 0.146 µM [falling, full curve, poor fit] |
| CCCCCC(=O)N1CCCCC1 |  | 0.58 µM [falling, single point] |  |
| Cn1nc(CC(=O)NCc2cccc3ccccc23)c2ccccc2c1=O |  | 2.91 µM [rising, single point] | 1.46 µM [rising, partial curve] |
| CCOc1ccc(NC(=O)CCCc2cc(-c3ccc(OCC)cc3)on2)cc1 | 31.7 |  |  |
| COc1cc(OC)cc(C(=O)NCC2CCCO2)c1 (stereo unspecified) | -34.6 | 32.6 µM [falling, partial curve] |  |
| COc1ccc(OC)c2c1sc(=NC(=O)c1cccc(N3C(=O)CCC3=O)c1)n2C | -86.2 | 29.1 µM [falling, single point] | 23.1 µM [falling, single point] |
| CC1=CC(C)(C)n2c(O)c(N=N)c3c(C)ccc1c32 | -42 |  | 14.6 µM [falling, partial curve, poor fit] |
| Cc1ccc2cc(C=O)c(N(C)C)nc2c1 | 9.37 |  | 9.2 µM [falling, partial curve, poor fit] |
| CSc1ccc(/C=N/n2c(C)nnc2C)cc1 | -18.7 |  |  |
| Cc1ccsc1C(=O)OCC(=O)Nc1cccc(S(=O)(=O)N2CCOCC2)c1 | -21.9 |  | 18.4 µM [falling, single point] |

Reformatted: results already given
Structure (SMILES) | cell number change [%] | AC50 [1] | AC50 [2]
CN1CCN(CC(O)COc2ccc(C34CC5CC(CC(C5)C3)C4)cc2)CC1 (stereo unspecified) | 5.85 |  | 0.116 µM [falling, full curve, poor fit]
CCOC(=O)C1CCCN(C(=O)c2cc3c(C)nc4ccccc4c3o2)C1 (stereo unspecified) | 31.4 | 1.03 µM [rising, full curve] | 29.1 µM [rising, single point]
Nc1cccc2c1C(=O)N(CCOc1ccccc1F)C2=O | 7.66 |  | 
O=C(COc1ccc(F)cc1)N(Cc1ccc(Cl)cc1)C1CCS(=O)(=O)C1 (stereo unspecified) | 7.16 |  | 6.51 µM [falling, single point]
NS(=O)(=O)c1ccc(NC(=O)NC2CC(=O)N(c3ccc4c(c3)OCCO4)C2)cc1 (stereo unspecified) | -15.5 |  | 
COc1ccccc1NC(=O)CN(c1ccccc1OC)S(=O)(=O)c1ccccc1 | -0.246 |  | 20.6 µM [falling, single point]
CCc1ccc(OCC(=O)NC(C)(C)C)cc1 | -23 |  | 6.51 µM [falling, partial curve, poor fit]
COc1ccccc1C(C)Nc1ccc(S(=O)(=O)N2CCN(C)CC2)cc1[N+](=O)[O-] (stereo unspecified) | -11.8 |  | 0.146 µM [falling, full curve, poor fit]
CCCCCC(=O)N1CCCCC1 |  | 0.58 µM [falling, single point] | 
Cn1nc(CC(=O)NCc2cccc3ccccc23)c2ccccc2c1=O |  | 2.91 µM [rising, single point] | 1.46 µM [rising, partial curve]
CCOc1ccc(NC(=O)CCCc2cc(-c3ccc(OCC)cc3)on2)cc1 | 31.7 |  | 
COc1cc(OC)cc(C(=O)NCC2CCCO2)c1 (stereo unspecified) | -34.6 | 32.6 µM [falling, partial curve] | 
COc1ccc(OC)c2c1sc(=NC(=O)c1cccc(N3C(=O)CCC3=O)c1)n2C | -86.2 | 29.1 µM [falling, single point] | 23.1 µM [falling, single point]
CC1=CC(C)(C)n2c(O)c(N=N)c3c(C)ccc1c32 | -42 |  | 14.6 µM [falling, partial curve, poor fit]
Cc1ccc2cc(C=O)c(N(C)C)nc2c1 | 9.37 |  | 9.2 µM [falling, partial curve, poor fit]
CSc1ccc(/C=N/n2c(C)nnc2C)cc1 | -18.7 |  | 
